# Measurements published in PubChem BioAssay AID493014 (National Center for Advancing Translational Sciences (NCATS), 2011).
# The list shows a part of the results. Further columns of the screen follow, without active or inactive calls. Compounds called inactive in the main read-out are mostly missing here. Potencies come from curve fits of mixed quality, noted in brackets.
# Test: qHTS Assay to Find Inhibitors of Chronic Active B-Cell Receptor Signaling
# Conditions: ABC-DLBCL IkBa-CBG/CBR reporter, luminescence ratio (green luciferase fused to IkBa over red control in TMD8 lymphoma cells), 4 h
# Description: NIH Molecular Libraries Probe Production Network [MLPCN] NIH Chemical Genomics Center [NCGC] MLPCN Grant: 1 R03 DA031086-01A1 PI Name: Dr. R. Eric Davis NCGC Assay Overview: Diffuse large B-cell lymphoma (DLBCL) is the most common category of non-Hodgkin lymphoma, with ~20,000 new cases per year in the United States. DLBCL should be regarded as a collection of different neoplasms. Microarray gene expression analysis has defined two principal types of DLBCL, named for their similarity to normal B cell stages or activation states: a germinal center B-cell (GCB) type, and an activated B-cell (ABC) type. In ABC-DLBCL, a constitutive high-level activity of the NF-kappaB family of transcription factors has been observed (1) and NF-kappaB target genes are more highly expressed in ABC primary tumors than in GCB tumors. Functional studies have shown a constitutive high-level activity of the IkappaB (inhibitor of kappa-B) kinase (IKK) complex. […] Further analysis of DLBCL primary tumors for NF-kappaB target gene expression imply that although CARD11 is required for constitutive IKK activity in all ABC-DLBCL lines, mutations in CARD11 may be the root cause of IKK activation only in lines or tumors with such mutations. In other words, CARD11 mutations may explain NF-kappaB activation in only 10% of ABC-DLBCL cases. […] This process has been termed 'chronic active BCR signaling' (CABS). The goal of this screen is to find small-molecule inhibitors of the CABS pathway found in ABC-DLBCL lines using a cell-based assay that measures IkappaBalpa stability, which has already been extensively validated in the OCI-Ly3 line (PubChem AID:445; REF: 4). […] The assay uses green (CBG68) and red (CBR) emitting beetle luciferases [Chroma-GloTM developed by Promega Corp.] where the green luciferase is fused to IkappaBalpha and the red luciferase is present in its native state. Both luciferase genes are stably present in the TMD8 human ABC DLBCL cell line, but their expression is under the control of tetracycline-inducible promoters. Following the addition of doxycycline to induce expression of the luciferases, the green luminescence in control cultures rises only slowly because the CBG fusion partner IkappaBalpha is targeted by IKK activity for rapid degradation. In contrast, green luminescence rises rapidly in the presence of proteasome inhibitors or IKK inhibitors. The rise in red luminescence of CBR is not affected by proteasome or IKK inhibitors, and serves as normalization for cell number and nonspecific effects. Compounds were screened as a concentration-titration series that ranged from 46 uM to 3 nM.
# NCGC Assay Protocol Summary: Cells were seeded in 1536-well plates at 5000 cells/4uL in IMDM medium containing 0.5% FBS, w/o phenol red, 1% penicillin/streptomycin. Then, 23 nL of compounds or DMSO were delivered to each well using a pin tool. One uL 20ng/ml doxycycline was then dispensed into white solid 1536-well plates and the plates were incubated at 37C/5% C02 in a cell incubator for 4 hrs. Then 4 uL luminescent substrate mix (in-house prepared: 150 mM Tris-Cl, pH 7.6, 3 mM MgCl2, 1% Triton X-100, 5 mM DTT, 0.2 mM CoA, 0.15 mM ATP, 5 mM D-luciferin, final concentrations) was added to each well. The plate was incubated at r.t. for 10-15 min. The plates were measured on a ViewLux plate reader for green luminescence (540/20 nm filter) and red luminescence (618/8 nm filter). The green and red luminescent signals were corrected for red and green luminescence filter overlap using previously determined filter calibration constants (determined using the procedure outlined in the Promega Technical Manual; REF 4). The %Activity was determined from the ratio of corrected green/red luminescent values. MG132 were used as control. […] Red luminescent %Activity was normalized to the difference between red luminesence in basal cells (0%Activity) and zero luminescence (-100% Activity). […]
# [1] = measured here: CBR red luminescence, cell number
SMILES,AC50 [1],AC50 (measured here: IkBa-CBG green luminescence)
C#CCOc1cc(C2C3=C(COC3=O)Nc3cc4c(cc32)OCO4)ccc1OC (stereo unspecified),"3.16 µM [rising, partial curve, poor fit]","3.98 µM [falling, full curve]"
Fc1cccc(F)c1CN1CCN(c2ccc(Cl)cc2)CC1,"14.1 µM [rising, partial curve, poor fit]",–
CCCCCc1cc(=O)oc2c(C(CCN(CC)CC)c3cc(OC)c(OC)c(OC)c3)c(OC)cc(OC)c12 (stereo unspecified),"12.6 µM [falling, single point]",–
COc1ccc(-c2nn(CCC#N)cc2C(=O)Nc2ccccc2Cl)cc1,"0.398 µM [rising, full curve, poor fit]",–
CCCNC(=O)c1c(N)n(CC2CCCO2)c2nc3ccccc3nc12 (stereo unspecified),"3.16 µM [falling, partial curve]",–
COc1ccc(NC(=O)CN2C(=O)C(C)N=C(c3ccccc3F)c3cc(Cl)ccc32)c(OC)c1 (stereo unspecified),"35.5 µM [falling, single point]",–
Cc1cc(C)c(NC(=O)CCCn2c(=O)oc3ccccc32)c(C)c1,"4.61 µM [rising, partial curve, poor fit]",–
c1ccc(CNc2ncnc3nc[nH]c23)cc1,"0.92 µM [falling, full curve, poor fit]",–
CNC(=O)OCCc1nccn1C,"1.3 µM [rising, full curve]",–
O=C(O)[C@@H]1C[C@H]1[C@@H](NP(=O)(c1ccccc1)c1ccccc1)c1ccccc1,"0.103 µM [rising, full curve, poor fit]",–
Cc1ccc(O)c(CN2CCN(c3ccccc3)CC2)c1,"35.5 µM [rising, single point]",–
COC(=O)c1cnn(-c2cc(Oc3ccccc3)ncn2)c1N,"6.31 µM [rising, full curve, poor fit]",–
FC(F)(F)c1ccc2c(c1)N(CCCN1CCN(CCCl)CC1)c1ccccc1S2,"0.731 µM [rising, partial curve, poor fit]",–
COC(=O)C1=C(c2ccc(-c3ccccc3)c(F)c2)C[C@@H]2CC[C@H]1N2C(=O)NC1Cc2ccccc2C1,"2.91 µM [falling, partial curve]",–
O=C(Nc1ccc(Cl)cc1)O/N=C(\c1ccccc1)c1ccccn1,"1.26 µM [rising, full curve, poor fit]",–
CCCNC(=O)N1C2CCC1CC(O)(c1cccnc1)C2 (stereo unspecified),"0.0058 µM [falling, full curve, poor fit]",–
Cc1cc(C)cc(-n2c(/C=C/c3cccc(F)c3)nc3ccccc3c2=O)c1,"3.55 µM [rising, partial curve, poor fit]",–
COc1cc(/C=N/NC(=O)Cn2c([N+](=O)[O-])cnc2C)ccc1OC(=O)N(C)C,"6.51 µM [rising, single point]",–
CCCCNS(=O)(=O)c1ccc(OCC(=O)N2CCN(Cc3ccc4c(c3)OCO4)CC2)cc1,"28.2 µM [falling, single point]",–
O=[N+]([O-])c1cccc(NP(=O)(Oc2ccccc2)Oc2ccccc2)c1,"31.6 µM [falling, single point]",–
CC1(C)CC(=O)C(C=NCCN2CCN(C(=O)Cc3ccccc3)CC2)=C(O)C1,"10 µM [rising, partial curve, poor fit]",–
COc1cccc(CC(=O)N2CCN(Cc3cccc(Cl)c3)CC2)c1,"17.8 µM [falling, partial curve, poor fit]",–

# Some of the entries above in a different format:
SMILES | AC50 [1] | AC50 (measured here: IkBa-CBG green luminescence)
Fc1cccc(F)c1CN1CCN(c2ccc(Cl)cc2)CC1 | 14.1 µM [rising, partial curve, poor fit] | –
COc1ccc(-c2nn(CCC#N)cc2C(=O)Nc2ccccc2Cl)cc1 | 0.398 µM [rising, full curve, poor fit] | –
CCCNC(=O)c1c(N)n(CC2CCCO2)c2nc3ccccc3nc12 (stereo unspecified) | 3.16 µM [falling, partial curve] | –
COc1ccc(NC(=O)CN2C(=O)C(C)N=C(c3ccccc3F)c3cc(Cl)ccc32)c(OC)c1 (stereo unspecified) | 35.5 µM [falling, single point] | –
CNC(=O)OCCc1nccn1C | 1.3 µM [rising, full curve] | –
O=C(O)[C@@H]1C[C@H]1[C@@H](NP(=O)(c1ccccc1)c1ccccc1)c1ccccc1 | 0.103 µM [rising, full curve, poor fit] | –
Cc1ccc(O)c(CN2CCN(c3ccccc3)CC2)c1 | 35.5 µM [rising, single point] | –
COC(=O)c1cnn(-c2cc(Oc3ccccc3)ncn2)c1N | 6.31 µM [rising, full curve, poor fit] | –
FC(F)(F)c1ccc2c(c1)N(CCCN1CCN(CCCl)CC1)c1ccccc1S2 | 0.731 µM [rising, partial curve, poor fit] | –
COC(=O)C1=C(c2ccc(-c3ccccc3)c(F)c2)C[C@@H]2CC[C@H]1N2C(=O)NC1Cc2ccccc2C1 | 2.91 µM [falling, partial curve] | –
CCCNC(=O)N1C2CCC1CC(O)(c1cccnc1)C2 (stereo unspecified) | 0.0058 µM [falling, full curve, poor fit] | –
CC1(C)CC(=O)C(C=NCCN2CCN(C(=O)Cc3ccccc3)CC2)=C(O)C1 | 10 µM [rising, partial curve, poor fit] | –

# (listing goes on)

SMILES,AC50 [1],AC50 (measured here: IkBa-CBG green luminescence)
CC(CO)(CO)N=Cc1c(O)n(-c2cccc3ccccc23)c(=O)[nH]c1=O,"6.51 µM [falling, partial curve, poor fit]",–
COc1ccc2ccc(O)c(CN3CC=C(c4ccccc4)CC3)c2c1,"35.5 µM [falling, single point]",–
C=CCn1c(O)c(C(C)=NCc2cccnc2)c(=O)[nH]c1=O,"2.59 µM [falling, partial curve]",–
CNC(=O)Oc1ccc2c(c1)C(=O)c1ccccc1CO2,"2.91 µM [falling, single point]",–
c1ccc2c(CN3CCCCCC3)c[nH]c2c1,"2 µM [falling, full curve, poor fit]",–
Cc1cccc(OP(=O)(Nc2ccc(F)cc2)Oc2cccc(C)c2)c1,"14.1 µM [falling, single point]",–
CC1=CC(C)C(COC(N)=O)(COC(N)=O)C(C)C1 (stereo unspecified),"0.00411 µM [falling, full curve, poor fit]",–
NC(N)=N/N=C/c1ccc(N2CCOCC2)cc1,"35.5 µM [falling, single point]",–
CNC(=O)N(C)c1ccc(C(O)(C(=O)OC)C(F)(F)F)cc1 (stereo unspecified),"35.5 µM [rising, single point]",–
Cn1c(=O)oc2cc(S(=O)(=O)NC3CCCc4ccccc43)ccc21 (stereo unspecified),"0.184 µM [falling, single point]",–
O=C(O)c1ccccc1SCC(=O)N1CCc2ccccc21,"14.1 µM [falling, partial curve, poor fit]",–
O=C(Cn1nc(Cc2cccnc2)c2ccccc2c1=O)N1CCC2(CC1)OCCO2,"29.1 µM [rising, single point]",–
Cc1cccc(-n2c(O)c(C=NCCN3CCCCC3)c(=O)[nH]c2=O)c1,"3.98 µM [rising, full curve, poor fit]",–
Cc1nc2ccccc2c(=O)n1-c1ccc(F)cc1F,"28.2 µM [rising, single point]",–
Cc1ccc2c(c1)C1CN(C)CCC1N2S(=O)(=O)c1ccccc1 (stereo unspecified),"31.6 µM [falling, partial curve, poor fit]",–
Nc1c(C(=O)NCc2ccco2)c2nc3ccccc3nc2n1Cc1ccccc1,"18.4 µM [falling, partial curve]",–
Cc1cccc(-n2c(C)nc3cc(C(=O)N4CCC5(CC4)OCCO5)ccc32)c1,"3.98 µM [rising, partial curve, poor fit]",–
Oc1ccc(C2NCc3ccccc3-n3cccc32)cc1Cl (stereo unspecified),"29.1 µM [falling, single point]",–
CCOc1cccc(CNCCc2c(C)[nH]c3ccc(OC(F)(F)F)cc23)c1O,"35.5 µM [falling, single point]",–
O=C(CN1CC=C(c2ccccc2)CC1)NC(=O)NCc1ccco1,"11.2 µM [rising, partial curve, poor fit]",–
COC(=O)c1cccc(COC(=O)c2cc3ccccc3oc2=O)c1,"11.2 µM [rising, partial curve, poor fit]",–
Cc1ccccc1N1CCN(C2CCCN(C(=O)Cc3c(C)noc3C)C2)CC1 (stereo unspecified),"35.5 µM [falling, single point]",–

SMILES,AC50 [1],AC50 (measured here: IkBa-CBG green luminescence)
O=C(N/N=C1/CN2CCC1CC2)c1cccc(O)c1,"1.46 µM [falling, partial curve]",–
Cc1cc(C)c(-n2c(O)c(/C=N/NC(=O)c3ccncc3)c(=O)[nH]c2=O)c(C)c1,"0.891 µM [rising, full curve, poor fit]",–
COCCOC(=O)c1c(C)n(C)c2ccc(OC(=O)N3CCOCC3)cc12,"35.5 µM [falling, single point]",–
CCCCCn1c(=O)c(C(=O)Nc2ccccc2N)c(O)c2ccccc21,"20 µM [rising, single point]",–
CCOC(=O)C(O)(c1ccc(NC(=S)NC(=O)c2ccc(Cl)cc2Cl)c(C)c1)C(F)(F)F (stereo unspecified),"16.4 µM [falling, single point]",–
COc1ccc(CCn2c(O)c(C=Nc3ccc(F)cc3)c(=O)[nH]c2=O)cc1OC,"3.98 µM [rising, single point]",–
CN(C)C(=O)Oc1ccc2ccccc2c1Cl,"0.58 µM [falling, full curve]",–
CN1CCN(c2ccc3nccnc3c2)CC1,"31.6 µM [falling, single point]",–
CCC(C)N=Cc1c(O)n(-c2ccccc2)c(=O)[nH]c1=O (stereo unspecified),"29.1 µM [falling, single point]",–
O=S1(=O)N(CCN2CC=C(c3c[nH]c4cc(F)ccc34)CC2)c2cccc3c2N1CCC3,"2.91 µM [rising, full curve]",–
CNC(=S)NC1CC2CCCC(C1)N2CC(C)C (stereo unspecified),"3.55 µM [rising, single point]",–
CN(C)CCCN1c2ccccc2Sc2ccc(Cl)cc21,"31.6 µM [falling, partial curve, poor fit]",–
c1ccc2c(c1)[nH]c1cnccc12,"12.6 µM [falling, partial curve, poor fit]",–
Cc1cc(-c2ccccc2)cc(-c2ccccc2)[n+]1CCc1ccccc1,"20.6 µM [falling, single point]",–
Clc1ccc(-c2cc3ccccc3nc2N2CCOCC2)cc1,"35.5 µM [rising, single point]",–
O=C(C(=O)N1CCOCC1)c1cn(Cc2c(F)cccc2Cl)c2ccccc12,"3.98 µM [rising, single point]",–
COc1ccc(Br)cc1CNCCc1cccc(Cl)c1,"14.1 µM [falling, single point]",–
Cc1c(/C=N/NC(=O)c2ccc(Br)o2)cnn1C,"35.5 µM [falling, single point]",–
O=c1cccc2n1CC1CC2CN(Cc2cccc(Cl)c2Cl)C1 (stereo unspecified),"5.01 µM [falling, partial curve]",–
Nc1ccc2c3c(cccc13)CC2,"31.6 µM [rising, single point]",–
Cc1cccc(N2C(=O)NC(=O)/C(=C\c3cc(C)n(-c4sc5c(c4C#N)CCCC5)c3C)C2=O)c1C,"16.4 µM [rising, partial curve, poor fit]",–
